# Data published in publication PMC6739875.
# T1: FLAG-tagged EEN expressed in Col-0 35S:EEN plants (A. thaliana) (UniProt Q8RWS0)
# T1 sequence: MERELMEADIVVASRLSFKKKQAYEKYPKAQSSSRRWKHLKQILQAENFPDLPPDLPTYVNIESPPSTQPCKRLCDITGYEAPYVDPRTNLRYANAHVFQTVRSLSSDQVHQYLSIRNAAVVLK
# Experiments:
# [1] = target: T1, FLAG-tagged EEN expressed in Col-0 35S:EEN plants (A. thaliana); assay: affinity purification with mass spectrometry; nuclear extracts of Col-0 35S:EEN-FLAG flowers on Anti-FLAG M2 Magnetic Beads for 2 hr, washed with Sonic buffer; two independent IPs; non-transgenic Col-0 as control
# [2] = target: T1, FLAG-tagged EEN expressed in Col-0 35S:EEN plants (A. thaliana); assay: as above; remark: listed apart in the source
molecule,measurement,setting,value
"helicase RVB2, endogenous",binding,[1],binds
"ARP5 (ACTIN-RELATED PROTEIN5), endogenous (protein, UniProt Q940Z2 1-724) MAFVSRIRRQSDYNTYPSSIPIVIDNGASYFRIGWAGETEPRVVFRNIVQRPRHKATGETVTIVGDLDPSMMKYFDCTRSGPRSPFDSNVVYQFEIMEYILDYAFDRLGANGSGIDHPILITECACNPVQSRSKMAELLFETYGVPAVAFGVDAAFSYKYNQLHGICKKDGIVLCPGFTTTHSIPFVDGEPIYKGSSRTNIGGYHVTDYLKQLLSLKYPFHSSRFTWEKAEDLKLEHCYIAPDYASEIRLFQEGRKEAEEKTSYWQLPWIPPPTEVPPSEEEIARKAAIREKQGQRLREMAEAKRVSKINDMENQLISLRFLLKQVDQVEEDDIPTFLSDTGYASRQELESTITKVTQSLRKARGEPKNEPAEYEENPDSLNNEKYPLMNVPDDILTPEQLKDKKRQMFLKTTAEGRLRARQKRNEEELEKEKRNQLEEERRRENPESYLEELQAQYKEVLERVEQKKRLKTNGSSNGNNKSGGIGRGERLSAAQRERMRLLTTAAFDRGKGEDTFGSRDEDWQLYKLMSKDNDDDDEQPDSDEAELARLSSRLQEIDPTFVQKVEGELSQTSGEVPRVRPLTEEDYKIVIGIERFRCPEILFHPNLIGIDQVGLDEMAGTSIRRLPHDEKELEERLTSSILMTGGCSLLPGMNERLECGIRMIRPCGSPINVVRAMDPVLDAWRGASAFAANLNFLGNAFTKMDYDEKGEDWLRNYQIRYNYL",binding,[2],binds

# Where two headings read alike, the source gives them in different places. Results are given in words; binding and its absence hold for the method and conditions named. Binding seen in cells or lysates may run through a third protein. A yes stands for co-enrichment or nearness to the bait. Other partners may have been found. Where a sequence is shown, tags or fusion partners need not be part of it.
